Assay results: PubChem BioAssay AID248 (DTP/NCI, 2004)
The list shows only some results of the screen, not a fair sample: it covers a few groups of compounds. Not every dose and run of a compound is shown. T/C is the treated group as % of the vehicle group. Some entries give survivors of the animals treated and no T/C: the source files T/C as zero there, which appears to mark a toxic dose or a test without result, not a measured value. Some doses without a T/C left all or most animals alive at the check, yet need not have been tolerated: survival well below the control is almost never listed, so the zero probably covers shortened survival too. Survivors were counted at the toxicity check, usually on the fifth day, unless a day is given; later deaths do not show. Schedule codes are those of the source, read here as Q, the interval in days (D) or hours (H), X, the number of doses. Some schedule codes hold Z or #, which are not explained here. Some doses were run more than once; the results are listed from low to high. For survival time, the PubChem record calls one and a half times the control and up active, and a quarter to a half above the control has no call in these data; cut-offs in other NCI protocols can differ. Additions like (4×) count equal records among those shown. Some T/C values carry the count of animals alive at the toxicity check (mostly the fifth day); without a count or a note in brackets, all were alive then.

Tested on: L1210 leukemia ip in BDF1 mice, survival T/C
Assay: NCI In Vivo Anticancer Drug Screen. Data for tumor model L1210 Leukemia (intraperitoneal) in B6D2F1 (BDF1) mice
Conditions: vehicle: saline, higher T/C = longer survival
[1] = T/C endpoint: mean survival time, dose: 18.0 mg/kg/injection, schedule: Q01DX001 (ip)
[2] = T/C endpoint: mean survival time, dose: 32.0 mg/kg/injection, schedule: Q01DX009 (ip)

CN(N=O)C(=N)N[N+](=O)[O-]
T/C (T/C endpoint: mean survival time, dose: 0.16 mg/kg/injection, schedule: Q#A X Z (ip)): 105 % of control | T/C (T/C endpoint: mean survival time, dose: 0.31 mg/kg/injection, schedule: Q#A X Z (ip)): 110 % of control | T/C (T/C endpoint: mean survival time, dose: 0.62 mg/kg/injection, schedule: Q#A X Z (ip)): 111 % of control | T/C (T/C endpoint: mean survival time, dose: 1.25 mg/kg/injection, schedule: Q#A X Z (ip)): 108 % of control | T/C (T/C endpoint: mean survival time, dose: 1.9 mg/kg/injection, schedule: Q03DX006 (ip)): 106 % of control | T/C (T/C endpoint: mean survival time, dose: 2.5 mg/kg/injection, schedule: Q#A X Z (ip)): 131 % of control | T/C (T/C endpoint: mean survival time, dose: 3.8 mg/kg/injection, schedule: Q03DX006 (ip)): 105 % of control | T/C (T/C endpoint: mean survival time, dose: 4.5 mg/kg/injection, schedule: Q01DX001 (ip)): 105 and 106 % of control | T/C (T/C endpoint: mean survival time, dose: 5.0 mg/kg/injection, schedule: Q01DX006 (iv)): 114 % of control | T/C (T/C endpoint: mean survival time, dose: 5.0 mg/kg/injection, schedule: Q01DX Z (im)): 108 % of control | T/C (T/C endpoint: mean survival time, dose: 5.0 mg/kg/injection, schedule: Q01DX Z (ip)): 138 % of control | T/C (T/C endpoint: mean survival time, dose: 5.0 mg/kg/injection, schedule: Q01DX Z (oral)): 105 % of control | T/C (T/C endpoint: mean survival time, dose: 5.0 mg/kg/injection, schedule: Q01DX Z (sc)): 114 % of control | T/C (T/C endpoint: mean survival time, dose: 5.0 mg/kg/injection, schedule: Q#A X Z (ip)): 138 % of control | T/C (T/C endpoint: mean survival time, dose: 7.5 mg/kg/injection, schedule: Q03DX006 (ip)): 117 % of control | T/C (T/C endpoint: mean survival time, dose: 8.0 mg/kg/injection, schedule: Q01DX009 (ip)): 126 and 135 % of control | T/C (T/C endpoint: mean survival time, dose: 9.0 mg/kg/injection, schedule: Q01DX001 (ip)): 101 and 119 % of control | T/C (T/C endpoint: mean survival time, dose: 10.0 mg/kg/injection, schedule: Q01DX006 (iv)): 111 % of control | T/C (T/C endpoint: mean survival time, dose: 10.0 mg/kg/injection, schedule: Q01DX Z (im)): 114 % of control | T/C (T/C endpoint: mean survival time, dose: 10.0 mg/kg/injection, schedule: Q01DX Z (ip)): 147 % of control | T/C (T/C endpoint: mean survival time, dose: 10.0 mg/kg/injection, schedule: Q01DX Z (oral)): 103 % of control | T/C (T/C endpoint: mean survival time, dose: 10.0 mg/kg/injection, schedule: Q01DX Z (sc)): 115 % of control | T/C (T/C endpoint: mean survival time, dose: 10.0 mg/kg/injection, schedule: Q#A X Z (ip)): 158 % of control | T/C (T/C endpoint: mean survival time, dose: 15.0 mg/kg/injection, schedule: Q03DX006 (ip)): 127 % of control | T/C (T/C endpoint: mean survival time, dose: 16.0 mg/kg/injection, schedule: Q01DX009 (ip)): 130 and 148 % of control | T/C [1]: 103 % of control | survivor count [1]: 3 of 6 | T/C (T/C endpoint: mean survival time, dose: 20.0 mg/kg/injection, schedule: Q01DX006 (iv)): 108 % of control | T/C (T/C endpoint: mean survival time, dose: 20.0 mg/kg/injection, schedule: Q01DX Z (im)): 127 % of control | T/C (T/C endpoint: mean survival time, dose: 20.0 mg/kg/injection, schedule: Q01DX Z (ip)): 150 % of control | T/C (T/C endpoint: mean survival time, dose: 20.0 mg/kg/injection, schedule: Q01DX Z (oral)): 123 % of control | T/C (T/C endpoint: mean survival time, dose: 20.0 mg/kg/injection, schedule: Q01DX Z (sc)): 123 % of control | T/C (T/C endpoint: mean survival time, dose: 20.0 mg/kg/injection, schedule: Q#A X Z (ip)): 109 % of control | T/C (T/C endpoint: mean survival time, dose: 30.0 mg/kg/injection, schedule: Q03DX006 (ip)): 151 % of control | T/C [2]: 103 % of control | survivor count [2]: 6 of 6 | T/C (T/C endpoint: mean survival time, dose: 35.0 mg/kg/injection, schedule: Q01DX001 (ip)): 125 and 127 % of control | T/C (T/C endpoint: mean survival time, dose: 35.0 mg/kg/injection, schedule: Q07DX003 (ip)): 113 % of control | T/C (T/C endpoint: mean survival time, dose: 40.0 mg/kg/injection, schedule: Q01DX006 (iv)): 109 % of control | T/C (T/C endpoint: mean survival time, dose: 40.0 mg/kg/injection, schedule: Q01DX Z (im)): 108 % of control | T/C (T/C endpoint: mean survival time, dose: 40.0 mg/kg/injection, schedule: Q01DX Z (ip)): 105 % of control | T/C (T/C endpoint: mean survival time, dose: 40.0 mg/kg/injection, schedule: Q01DX Z (oral)): 108 % of control | T/C (T/C endpoint: mean survival time, dose: 40.0 mg/kg/injection, schedule: Q01DX Z (sc)): 121 % of control | T/C (T/C endpoint: mean survival time, dose: 60.0 mg/kg/injection, schedule: Q03DX006 (ip)): 140 % of control | survivor count (T/C endpoint: mean survival time, dose: 64.0 mg/kg/injection, schedule: Q01DX009 (ip)): 3 of 6 and 6 of 6 | T/C (T/C endpoint: mean survival time, dose: 70.0 mg/kg/injection, schedule: Q01DX001 (ip)): 115 % of control (2×) | T/C (T/C endpoint: mean survival time, dose: 70.0 mg/kg/injection, schedule: Q07DX003 (ip)): 134 % of control | T/C (T/C endpoint: mean survival time, dose: 80.0 mg/kg/injection, schedule: Q01DX006 (iv)): 108 % of control [4 of 6 alive] | survivor count (T/C endpoint: mean survival time, dose: 80.0 mg/kg/injection, schedule: Q01DX Z (oral)): 6 of 6 | T/C (T/C endpoint: mean survival time, dose: 80.0 mg/kg/injection, schedule: Q01DX Z (sc)): 110 % of control | T/C (T/C endpoint: mean survival time, dose: 120.0 mg/kg/injection, schedule: Q03DX006 (ip)): 103 % of control | T/C (T/C endpoint: mean survival time, dose: 140.0 mg/kg/injection, schedule: Q01DX001 (ip)): 107 and 114 % of control [5 of 6 alive] | T/C (T/C endpoint: mean survival time, dose: 140.0 mg/kg/injection, schedule: Q07DX003 (ip)): 101 % of control | T/C (T/C endpoint: mean survival time, dose: 160.0 mg/kg/injection, schedule: Q01DX006 (iv)): 110 % of control [5 of 6 alive] | survivor count (T/C endpoint: mean survival time, dose: 160.0 mg/kg/injection, schedule: Q01DX Z (oral)): 6 of 6 | T/C (T/C endpoint: mean survival time, dose: 160.0 mg/kg/injection, schedule: Q01DX Z (sc)): 103 % of control | T/C (T/C endpoint: mean survival time, dose: 280.0 mg/kg/injection, schedule: Q01DX001 (ip)): 89 and 113 % of control | survivor count (T/C endpoint: mean survival time, dose: 280.0 mg/kg/injection, schedule: Q07DX003 (ip)): 6 of 6 | T/C (T/C endpoint: mean survival time, dose: 320.0 mg/kg/injection, schedule: Q01DX Z (sc)): 90 % of control [4 of 6 alive] | survivor count (T/C endpoint: mean survival time, dose: 640.0 mg/kg/injection, schedule: Q01DX Z (sc)): 0 of 6 | survivor count (T/C endpoint: mean survival time, dose: 1280.0 mg/kg/injection, schedule: Q01DX Z (sc)): 0 of 6 | T/C (T/C endpoint: median survival time, dose: 2.5 mg/kg/injection, schedule: Q01DX009 (ip)): 100 % of control | T/C (T/C endpoint: median survival time, dose: 5.0 mg/kg/injection, schedule: Q01DX009 (ip)): 120 % of control | T/C (T/C endpoint: median survival time, dose: 10.0 mg/kg/injection, schedule: Q01DX009 (ip)): 120 % of control | T/C (T/C endpoint: median survival time, dose: 20.0 mg/kg/injection, schedule: Q01DX009 (ip)): 120 % of control [7 of 8 alive] | survivor count (T/C endpoint: median survival time, dose: 40.0 mg/kg/injection, schedule: Q01DX009 (ip)): 8 of 8 | survivor count (T/C endpoint: median survival time, dose: 80.0 mg/kg/injection, schedule: Q01DX009 (ip)): 8 of 8
